Assay results taken from patent publication US7211422B2, “Polypeptide having α-isomaltosylglucosaccharide synthase activity” (Kabushiki Kaisha Hayashibara Seibutsu Kagaku Kenkyujo, priority 2001, dated 2007).
Some results were stated once for a whole list of compounds, not compound by compound.

B1: Enzyme of Strain C11: purified polypeptide having α-isomaltosylglucosaccharide-forming enzyme activity from Bacillus globisporus C11 (Experiment 1-3); contains SEQ ID NO: 1 (protein)
chain: YVSSLGNLISSSVTGDTLTLTVDNGAEPSDDLLIVQAVQNGILKVDYRPNSITPSAKTPMLDPNKTWSAVGATINTTANPMTITTSNMKIEITKNPVRMTVKKADGTTLFWEPSGGGVFSDGVRFLHATGDNMYGIRSFNAFDSGGDLLRNSSNHAAHAGEQGDSGGPLIWSTAGYGLLVDSDGGYPYTDSTTGQMEFYYGGTPPEGRRYAKQNVEYYIMLGTPKEIMTDVGEITGKPPMLPKWSLGFMNFEWDTNQTEFTNNVDTYRAKNIPIDAYAFDYDWKKYGETNYGEFAWNTTNFPSASTTSLKSTMDAKGIKMIGITKPRIVTKDASANVTTQGTDATNGGYFYPGHNEYQDYFIPVTVRSIDPYNANERAWFWNHSTDALNKGIVGWWNDETDKVSSGGALYWFGNFTTGHMSQTMYEGGRAYTSGAQRVWQTARTFYPGAQRYATTLWSGDIGIQYNKGERINWAAGMQEQRAVMLSSVNNGQVKWGMDTGGFNQQDGTTNNPNPDLYARWMQFSALTPVFRVHGNNHQQRQPWYFGSTAEEASKEAIQLRYSLIPYMYAYERSAYENGNGLVRPLMQAYPTDAAVKNYTDAWMFGDWLLAAPVVDKQQTSKDIYLPSGSWIDYARGNAITGGQTIRYSVNPDTLTDMPLFIKKGAIIPTQKVQDYVGQASVTSVDVDVFPDTTQSSFTYYDDDGASYNYESGTYFKQNMTAQDNGSGSLSFTLGAKSGSYTPALQSYIVKLHGSAGTSVTNNSAAMTSYASLEALKAAAGEGWATGKDIYGDVTYVKVTAGTASSKSIAVTGVAAVSATTSQYEAEDASLSGNSVAAKASINTNHTGYTGTGFVDGLGNDGAGVTFYPKVKTGGDYNVSLRYANASGTAKSVSIFVNGKRVKSTSLANLANWDTWSTQSETLPLTAGVNVVTYKYYSDAGDTGNVNIDNITVPFAPIIGKYEAESAELSGGSSLNTNHWYYSGTAFVDGLSAVGAQVKYNVNVPSAGSYQVALRYANGSAATKTLSTYINGAKLGQTSFTSPGTNWNVWQDNVQTVTLNAGANTIAFKYDAADSGNINVDRLLLSTSAAGTPVSEQNLLDNPGFERDTSQTNNWIEWHPGTQAVAFGVDSGSTTNPPESPWSGDKRAYFFAAGAYQQSIHQTISVPVNNVKYKFEAWVRMKNTTPTTARAEIQNYGGSAIYANISNSGVWKYISVSDIMVTNGQIDVGFYVDSPGGTTLHIDDVRVTKQ
modifications: Bacillus globisporus C11
B2: Enzyme of Strain N75: purified polypeptide having α-isomaltosylglucosaccharide-forming enzyme activity from Bacillus globisporus N75 (Experiment 2-3); contains SEQ ID NO: 2 (protein)
chain: HVSALGNLLSSAVTGDTLTLTIDNGAEPNDDILVLQAVQNGILKVDYRPNGVAPSADTPMLDPNKTWPSIGAVINTASNPMTITTPAMKIEIAKNPVRLTVKKPDGTALLWEPPTGGVFSDGVRFLHGTGDNMYGIRSFNAFDSGGDLLRNSSTQAARAGDQGNSGGPLIWSTAGYGVLVDSDGGYPFTDEATGKLEFYYGGTPPEGRRYTKQDVEYYIMLGTPKEIMSGVGEITGKPPMLPKWSLGFMNFEWDLNEAELKNHVDTYRAKNIPIDGYAIDFDWKKYGENNYGEFAWNTANFPSAATTALKSQMDAKGIKMIGITKPRIATKDFSNNPTVQGTDAASGGYFYPGHSEYKDYFIPVFVRSIDPYNPAARSWFWNHSKDAFDKGIVGWWNDETDAVSSGGASYWFGNFTTGHMSQALYEGQRAYTSNAQRVWQTARTFYPGAQRYATTLWSGDIGIQYTKGERINWAAGMQEQRAVMLSSINNGQVKWGMDTGGFNQQDGTTNNPNPDLYARWMQFSALTPVFRVHGNNHQQRQPWYYGSTAEEASKEALQLRYSLIPYMYAYERSAYENGNGLVRPLMQEYPADANAKNYLDAWMFGDWLLAAPVVEKQQTSKEIYLPAGTWIDYNRGTVLTGGQKISYAVNPDTLTDIPLFIKKGAIIPSQKVQDYVGQAPVQTVDVDVFPNTAQSSFTYYDDDGSSYNYESGAYFKQLMTAQDNGSGALSFTLGAKTGTYSPALQSYIVKLHGAAGASVTSNGAALASYASLQALKASASEGWAKGKDIYGDVTYVKLSAGAAAAKAIAVTGNSPVSVADVQYEAEEASLSGNTTATKATVNTNHAGYTGSGFVDGLSNPGAAVTFYPKVKTGGDYNVSLRYANSTGAAKSVSIFVNGKRVKSTSLANLPNWDTWGTQAETLPLTAGTNVVTYKFYSDAGDTGSVNLDNITVPFAPAIGKYEAESAELSGGSTVNQNHWFYSGTAFVDGLTAPGAQVKYTVNAPAAGSYQIALRYANGTGAAKTLSTYVNGTKLGQTAFASPGGNWNVWQDSVQTVALAAGTNTIAFKYDAGDSGSGSVNLDRLLLSAAAPGVPVSEQNLLDNGGFERDPSQSSNWTEWHPASQAIAYGIDSGSGMNPPESPWAGDKRAYFYAAGPYQQSIHQTVSVPVNNAKYKFEAWVLLKNTTPTTARVEIQNYGGSPIFTNISKDGVWKYISVSDIQVTNGQIDIGFYVDSPGGTTLHIDDVRVTKQ
modifications: Bacillus globisporus N75

Assay: Thermal stability and pH stability (residual enzyme activity)
Format: physicochemical
Conditions: 20 mM acetate buffer pH 6.0, 60 minutes
Protocol: The thermal stability of the polypeptide having α-isomaltosylglucosaccharide-forming enzyme activity was determined by incubating the testing polypeptide solution in 20 mM acetate buffer, pH6.0 (in the case of the polypeptide from a strain A19, 20 m M Glycine-NaOH buffer, pH 8.0) at prescribed temperatures for 60 minutes in the presence or absence of 1 mM Ca^2+, cooling with water the resulting polypeptide solutions, and assaying the residual enzyme activity of each solution. The pH stability of the polypeptide having α-isomaltosylglucosaccharide-forming enzyme activity was determined by keeping the testing polypeptide solutions in 50 mM buffer having prescribed pHs at 4° C. for 24 hours, adjusting the pH of each solution to 6.0 (in the case of the polypeptide from a strain A19, pH 8.0), and assaying the residual enzyme activity of each solution. […] The thermal stability of the polypeptide having α-isomaltosylglucosaccharide-forming enzyme activity from a strain C11 was up to about 40° C. (in the absence of Ca^2+) and about 45° C. (in the presence of Ca^2+), and pH stability of about 5.0 to about 10.0. The thermal stability of the polypeptide having α-isomaltosylglucosaccharide-forming enzyme activity from a strain N75 was up to about 45° C. (in the absence of Ca^2+) and about 50° C. (in the presence of Ca^2+), and pH stability of about 5.0 to about 9.0. […]

Molecule	Thermal stability (in the presence of 1 mM Ca2+)	Thermal stability (in the absence of Ca2+)
B1	up to 45 °C	
B2		up to 45 °C
